# These are yes or no findings as the source states them, for the method shown. Binding seen in cells or lysates may run through a third protein. Here binding means that the protein was enriched with, or labelled near, the bait; the list need not be complete.
# Protein sequences, listed by entry. Tags and fused reporters are not part of them.
# UniProt P41229: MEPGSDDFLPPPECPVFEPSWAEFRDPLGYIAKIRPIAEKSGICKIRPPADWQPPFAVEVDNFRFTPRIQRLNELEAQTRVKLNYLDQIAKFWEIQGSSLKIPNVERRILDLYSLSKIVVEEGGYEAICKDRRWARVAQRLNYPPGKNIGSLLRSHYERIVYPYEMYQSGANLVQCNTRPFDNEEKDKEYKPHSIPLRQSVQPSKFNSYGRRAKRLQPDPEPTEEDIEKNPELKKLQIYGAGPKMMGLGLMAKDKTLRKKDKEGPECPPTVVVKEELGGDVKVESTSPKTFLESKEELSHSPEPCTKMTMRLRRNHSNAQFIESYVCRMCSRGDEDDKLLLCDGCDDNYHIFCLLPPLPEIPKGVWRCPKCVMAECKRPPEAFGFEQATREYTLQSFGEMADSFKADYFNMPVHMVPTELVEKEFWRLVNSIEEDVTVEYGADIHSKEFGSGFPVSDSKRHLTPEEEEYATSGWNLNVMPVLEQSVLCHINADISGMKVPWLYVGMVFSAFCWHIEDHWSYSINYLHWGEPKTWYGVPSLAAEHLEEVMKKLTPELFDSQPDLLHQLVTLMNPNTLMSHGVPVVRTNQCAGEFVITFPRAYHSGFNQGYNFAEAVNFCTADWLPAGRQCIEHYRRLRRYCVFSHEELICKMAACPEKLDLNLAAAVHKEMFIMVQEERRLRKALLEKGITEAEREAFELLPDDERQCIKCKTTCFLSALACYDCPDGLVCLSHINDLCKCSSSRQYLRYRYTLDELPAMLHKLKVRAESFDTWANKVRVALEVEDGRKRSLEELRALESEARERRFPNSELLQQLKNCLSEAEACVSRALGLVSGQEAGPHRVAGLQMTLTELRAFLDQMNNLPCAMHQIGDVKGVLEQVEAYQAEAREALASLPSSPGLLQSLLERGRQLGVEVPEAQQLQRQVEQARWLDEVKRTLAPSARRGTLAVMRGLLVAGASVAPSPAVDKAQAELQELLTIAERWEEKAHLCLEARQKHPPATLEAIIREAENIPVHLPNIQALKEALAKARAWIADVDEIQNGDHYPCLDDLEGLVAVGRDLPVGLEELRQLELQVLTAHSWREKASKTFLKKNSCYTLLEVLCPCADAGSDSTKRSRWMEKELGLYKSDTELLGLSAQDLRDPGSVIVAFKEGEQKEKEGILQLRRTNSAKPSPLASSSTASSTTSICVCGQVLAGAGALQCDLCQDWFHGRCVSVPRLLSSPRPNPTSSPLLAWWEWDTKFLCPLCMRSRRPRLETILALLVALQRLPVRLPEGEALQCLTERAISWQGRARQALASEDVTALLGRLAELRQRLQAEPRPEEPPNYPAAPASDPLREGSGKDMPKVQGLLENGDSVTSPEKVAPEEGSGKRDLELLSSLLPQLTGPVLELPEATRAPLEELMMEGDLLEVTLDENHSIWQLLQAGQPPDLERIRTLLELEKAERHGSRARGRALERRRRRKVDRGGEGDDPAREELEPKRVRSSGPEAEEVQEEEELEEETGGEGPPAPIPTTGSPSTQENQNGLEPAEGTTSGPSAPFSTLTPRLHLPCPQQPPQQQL
# UniProt P25490: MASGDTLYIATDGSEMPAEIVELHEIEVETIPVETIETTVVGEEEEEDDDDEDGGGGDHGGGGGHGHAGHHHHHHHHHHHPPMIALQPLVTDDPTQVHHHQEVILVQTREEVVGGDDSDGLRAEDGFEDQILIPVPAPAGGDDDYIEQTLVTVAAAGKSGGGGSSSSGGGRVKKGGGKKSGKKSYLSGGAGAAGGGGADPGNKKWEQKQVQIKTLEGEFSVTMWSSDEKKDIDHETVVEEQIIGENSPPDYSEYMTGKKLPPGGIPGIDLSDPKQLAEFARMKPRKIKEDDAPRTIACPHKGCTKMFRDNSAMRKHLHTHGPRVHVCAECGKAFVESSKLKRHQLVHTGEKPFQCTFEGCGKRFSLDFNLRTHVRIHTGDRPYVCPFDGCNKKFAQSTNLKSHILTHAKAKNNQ
# Molecular target: SBP- and Flag-tagged KDM5C (human) (UniProt P41229)
# Test: affinity purification with mass spectrometry; tandem affinity purification from HEK293T cells stably expressing SBP-Flag-KDM5C: IP lysis buffer, strep beads overnight at 4 °C, biotin elution, anti-Flag magnetic beads, SDS-PAGE, mass spectrometry
substance,measurement,value
"Yin Yang 1 (YY1), endogenous in HEK293T cells (from UniProt P25490 1-414)",binding,binds

# Source: publication PMC11624269
